At least one compound was matched to its structure with a doubt left.
Tests used:
Test in all cases: MIC of carbapenem by Etest (Example 2)
[1] = system: S. marcescens; format: cell-based, Serratia marcescens; conditions: S. marcescens IMP-1, n=2
Method: (§1) All strains had previously been characterized for their β-lactamase content at the molecular level. Minimum inhibitory concentration of carbapenem were determined using the Etest® (AB bioMérieux, Solna, Sweden) and results were recorded according to US guidelines (CLSI), as updated in 2011.

[2] = system: E. cloacae; format: cell-based, Enterobacter cloacae
Method: as §1

[3] = system: C. freundii; format: cell-based, Citrobacter freundii; conditions: C. freundii KPC-2, n=2
Method: as §1

[4] = system: K. pneumoniae; format: cell-based, Klebsiella pneumoniae
Method: as §1

SMILES: C[C@@H](O)[C@H]1C(=O)N2C(C(=O)O)=C(SCCN=CN)C[C@H]12 [IMP, imipenem]
- MICs range [1]: 8 to >32
- MICs range ([2]; E. cloacae IMP-1, n=12): 8 to >32
- MICs range ([2]; E. cloacae VIM-1, n=4): 1 to >32
- MICs range [3]: 8 to >32
- MICs range ([4]; K. pneumoniae KPC-2, n=27): 0.5 to >32
- MICs range ([4]; K. pneumoniae NDM-1, n=16): 0.5 to >32
- MICs range ([4]; K. pneumoniae OXA-48, n=15): 0.38 to >32
- MICs range ([4]; K. pneumoniae VIM-1, n=15): 0.5 to >32

Source: patent US9340819B2, “Method for detecting the presence of carbapenemase-producing bacteria in a sample” (priority 2011, dated 2016)
